{
  "source": "patent US8445522B2",
  "about": "“Substituted 2-(4-pyridyl)benzoxazoles, and compositions thereof, for use in arthropod pest control” (Sumitomo Chemical Company, Limited, priority 2009, dated 2013)",
  "test_system": "cotton aphids",
  "experiment": "Test Example 8 and Comparative Test Example: 200 ppm diluent scattered on cucumber seedling inoculated with cotton aphids",
  "format": "in vivo",
  "details": "200 ppm active ingredient, 10 ml scattered on cucumber seedling, counted five days after scattering",
  "note": "Some entries share one result that the patent states for a list of compounds.",
  "data": [
    {"smiles": "FC(F)(F)c1ccc2oc(-c3ccncc3)nc2c1", "note": "[active compound 13, 2-(pyridin-4-yl)-5-(trifluoromethyl)benzoxazole]", "values": [
      {"measurement": "Control value", "value": "not less than 90%"}
    ]}
  ]
}
